Source: publication doi:10.1101/843383
These are yes or no findings as the source states them, for the method shown. Binding seen in cells or lysates may run through a third protein. Some binding calls cover weakened binding; strength is not graded here.

Protein sequences, listed by entry. Tags and fused reporters are not part of them.
UniProt P07548: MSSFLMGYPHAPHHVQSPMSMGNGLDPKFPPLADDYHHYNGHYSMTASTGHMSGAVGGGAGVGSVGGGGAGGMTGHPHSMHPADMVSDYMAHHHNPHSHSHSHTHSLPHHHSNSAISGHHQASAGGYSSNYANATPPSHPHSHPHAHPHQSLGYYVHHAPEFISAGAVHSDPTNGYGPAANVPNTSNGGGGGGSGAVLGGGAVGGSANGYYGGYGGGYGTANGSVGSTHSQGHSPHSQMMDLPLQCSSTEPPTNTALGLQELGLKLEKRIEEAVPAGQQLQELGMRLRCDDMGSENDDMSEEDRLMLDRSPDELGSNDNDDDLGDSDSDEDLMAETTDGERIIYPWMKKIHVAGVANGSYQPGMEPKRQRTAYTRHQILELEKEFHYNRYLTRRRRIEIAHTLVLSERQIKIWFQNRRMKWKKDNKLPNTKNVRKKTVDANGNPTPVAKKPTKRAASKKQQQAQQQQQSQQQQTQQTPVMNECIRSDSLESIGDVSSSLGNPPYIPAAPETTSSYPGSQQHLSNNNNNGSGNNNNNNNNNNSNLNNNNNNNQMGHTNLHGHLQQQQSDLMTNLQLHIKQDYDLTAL
UniProt P09077: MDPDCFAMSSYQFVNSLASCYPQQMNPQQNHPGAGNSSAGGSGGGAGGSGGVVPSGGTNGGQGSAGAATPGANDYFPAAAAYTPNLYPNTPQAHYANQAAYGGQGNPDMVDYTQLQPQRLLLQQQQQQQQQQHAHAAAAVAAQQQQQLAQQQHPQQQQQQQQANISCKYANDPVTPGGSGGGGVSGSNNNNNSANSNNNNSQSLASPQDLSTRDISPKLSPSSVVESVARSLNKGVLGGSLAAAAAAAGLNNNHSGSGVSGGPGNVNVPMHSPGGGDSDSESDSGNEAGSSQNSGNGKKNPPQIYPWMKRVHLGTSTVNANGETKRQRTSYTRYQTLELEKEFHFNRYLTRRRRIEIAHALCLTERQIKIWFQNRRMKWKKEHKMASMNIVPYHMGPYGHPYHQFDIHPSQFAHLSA
UniProt Q9TVM2: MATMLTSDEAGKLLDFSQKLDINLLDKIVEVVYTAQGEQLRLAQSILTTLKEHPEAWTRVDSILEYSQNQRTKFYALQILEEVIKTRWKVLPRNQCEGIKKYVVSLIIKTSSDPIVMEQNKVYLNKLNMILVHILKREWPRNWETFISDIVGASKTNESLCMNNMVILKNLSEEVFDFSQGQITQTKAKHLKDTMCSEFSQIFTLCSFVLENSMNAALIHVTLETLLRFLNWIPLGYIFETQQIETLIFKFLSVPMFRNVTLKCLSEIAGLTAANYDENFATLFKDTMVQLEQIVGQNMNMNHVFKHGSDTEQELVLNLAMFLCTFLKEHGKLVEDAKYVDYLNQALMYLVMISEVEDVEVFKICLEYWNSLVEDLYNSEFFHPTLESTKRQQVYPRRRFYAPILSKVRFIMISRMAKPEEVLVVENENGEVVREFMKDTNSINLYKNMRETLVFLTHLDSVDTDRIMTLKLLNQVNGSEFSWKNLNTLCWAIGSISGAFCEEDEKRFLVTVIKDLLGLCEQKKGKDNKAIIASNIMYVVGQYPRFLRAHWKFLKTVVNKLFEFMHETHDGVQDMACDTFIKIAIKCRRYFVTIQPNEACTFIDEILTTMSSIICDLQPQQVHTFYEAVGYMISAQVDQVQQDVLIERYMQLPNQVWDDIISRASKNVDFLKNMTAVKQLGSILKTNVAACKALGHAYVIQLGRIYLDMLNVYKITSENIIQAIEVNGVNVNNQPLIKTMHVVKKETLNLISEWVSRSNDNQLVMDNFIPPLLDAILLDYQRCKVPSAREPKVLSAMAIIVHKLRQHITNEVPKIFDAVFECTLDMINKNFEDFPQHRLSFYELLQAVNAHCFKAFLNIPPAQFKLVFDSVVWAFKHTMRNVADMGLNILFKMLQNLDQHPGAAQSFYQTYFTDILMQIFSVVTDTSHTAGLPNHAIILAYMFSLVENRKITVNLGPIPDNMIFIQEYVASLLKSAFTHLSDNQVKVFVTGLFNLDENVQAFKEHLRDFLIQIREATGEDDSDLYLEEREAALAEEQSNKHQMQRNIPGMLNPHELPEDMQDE

How the values were obtained:
[1] = molecular target: VN-Dfd (Deformed fused to the N-terminal fragment of Venus) (Drosophila) (UniProt P07548); test: split reporter
[2] = molecular target: VC-Scr (Sex combs reduced fused to the C-terminal fragment of Venus) (Drosophila) (UniProt P09077); test: split reporter

Row | Substance | binding [1] | binding [2]
1 | VC-Emb (Embargoed fused to the C-terminal fragment of Venus), in embryos (from UniProt Q9TVM2 1-1063) | binds | 
2 | VN-Emb (Embargoed fused to the N-terminal fragment of Venus) (from UniProt Q9TVM2 1-1063) |  | binds
